Data published in patent US7753966B2, “Hair dye stabilizer” (Takasago International Corporation, priority 2006, dated 2010).

Assay: Sensory test of odor of the compound in liquid hair dye base first preparation by five special panelists
Parameters: key to odor (sensory test): C: odor is felt; B: odor is slightly felt; A: odor is hardly felt

SMILES | odor (sensory test) (Amount added 0.00001 %) | odor (sensory test) (Amount added 0.0001 %) | odor (sensory test) (Amount added 0.001 %) | odor (sensory test) (Amount added 0.002 %) | odor (sensory test) (Amount added 0.005 %) | odor (sensory test) (Amount added 0.008 %) | odor (sensory test) (Amount added 0.01 %) | odor (sensory test) (Amount added 0.1 %) | amount to be added at which the odor is not an unpleasant odor (based on the total weight of a hair dye including a base) | odor (sensory test) (Amount added 0.02 %) | odor (sensory test) (Amount added 0.05 %) | odor (sensory test) (Amount added 0.08 %) | odor (sensory test) (Amount added 1 %)
CC1CCC(C(C)(C)S)C(=O)C1 (stereo not shown) [8-Mercaptomenthone] | A | A | A | A | A | A | B | C | – | – | – | – | –
CC1=CCC(C(C)(C)S)CC1 (stereo not shown) [Limonenethiol] | A | A | A | B | C | C | C | C | – | – | – | – | –
CC(C)=CCC/C(C)=C/CS [thiogeraniol, (E)-3,7-dimethyl-2,6-octadien-1-thiol] | A | A | A | B | C | C | C | C | ≤ 0.002 % by weight | – | – | – | –
OCCS [thioglycol, 2-mercaptoethanol] | A | A | A | – | – | – | A | C | – | A | B | C | C
